The results in this text go back to paper PMC7239059.

By UniProt entry, the sequences of proteins in these tests, tags left out.
UniProt P0DTC3: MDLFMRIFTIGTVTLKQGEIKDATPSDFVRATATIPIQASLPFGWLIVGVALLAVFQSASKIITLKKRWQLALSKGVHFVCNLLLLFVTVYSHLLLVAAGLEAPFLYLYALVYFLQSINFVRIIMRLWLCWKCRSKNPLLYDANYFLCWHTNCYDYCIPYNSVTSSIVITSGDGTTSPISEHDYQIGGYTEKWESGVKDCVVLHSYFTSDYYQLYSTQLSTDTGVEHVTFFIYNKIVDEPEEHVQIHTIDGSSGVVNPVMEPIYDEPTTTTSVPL
UniProt P0DTD2: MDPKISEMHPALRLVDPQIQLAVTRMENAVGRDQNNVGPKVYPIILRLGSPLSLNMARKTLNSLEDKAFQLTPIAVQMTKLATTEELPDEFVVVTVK
UniProt P0DTD3: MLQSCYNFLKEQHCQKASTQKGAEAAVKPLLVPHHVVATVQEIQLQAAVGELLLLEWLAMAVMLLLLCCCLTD

Experiment in all cases: affinity purification with mass spectrometry
Experiment [1] addresses SARS-CoV-2 Orf3a (SARS-CoV-2) (UniProt P0DTC3).
For experiment [2], the target named is SARS-CoV-2 Orf9b (SARS-CoV-2) (UniProt P0DTD2).
Experiment [3] has as its target SARS-CoV-2 Orf9c (SARS-CoV-2) (UniProt P0DTD3).
Experiment [4] addresses SARS-CoV-2 Nsp15 (SARS-CoV-2), P0DTD1. As to conditions: remark: other sources report otherwise.
Experiment [5] concerns the target SARS-CoV-2 Nsp14 (SARS-CoV-2) (UniProt P0DTD1).

These are yes or no findings as the source states them, for the method shown. In cells and extracts the contact can be indirect. Here binding means that the protein was enriched with, or labelled near, the bait; the list need not be complete.

B1: TRIM59 (protein, UniProt Q8IWR1 1-403)
chain: MHNFEEELTCPICYSIFEDPRVLPCSHTFCRNCLENILQASGNFYIWRPLRIPLKCPNCRSITEIAPTGIESLPVNFALRAIIEKYQQEDHPDIVTCPEHYRQPLNVYCLLDKKLVCGHCLTIGQHHGHPIDDLQSAYLKEKDTPQKLLEQLTDTHWTDLTHLIEKLKEQKSHSEKMIQGDKEAVLQYFKELNDTLEQKKKSFLTALCDVGNLINQEYTPQIERMKEIREQQLELMALTISLQEESPLKFLEKVDDVRQHVQILKQRPLPEVQPVEIYPRVSKILKEEWSRTEIGQIKNVLIPKMKISPKRMSCSWPGKDEKEVEFLKILNIVVVTLISVILMSILFFNQHIITFLSEITLIWFSEASLSVYQSLSNSLHKVKNILCHIFYLLKEFVWKIVSH
Turning to B1, the binding entry in experiment [1] is “binds”.

B2: DCTPP1 (protein, UniProt Q9H773 1-170)
chain: MSVAGGEIRGDTGGEDTAAPGRFSFSPEPTLEDIRRLHAEFAAERDWEQFHQPRNLLLALVGEVGELAELFQWKTDGEPGPQGWSPRERAALQEELSDVLIYLVALAARCRVDLPLAVLSKMDINRRRYPAHLARSSSRKYTELPHGAISEDQAVGPADIPCDSTGQTST
With B2, in experiment [2], the binding result is given as “binds”.

B3: NDFIP2 (protein, UniProt Q9NV92 1-336)
chain: MARRRSQRVCASGPSMLNSARGAPELLRGTATNAEVSAAAAGATGSEELPPGDRGCRNGGGRGPAATTSSTGVAVGAEHGEDSLSRKPDPEPGRMDHHQPGTGRYQVLLNEEDNSESSAIEQPPTSNPAPQIVQAASSAPALETDSSPPPYSSITVEVPTTSDTEVYGEFYPVPPPYSVATSLPTYDEAEKAKAAAMAAAAAETSQRIQEEECPPRDDFSDADQLRVGNDGIFMLAFFMAFIFNWLGFCLSFCITNTIAGRYGAICGFGLSLIKWILIVRFSDYFTGYFNGQYWLWWIFLVLGLLLFFRGFVNYLKVRNMSESMAAAHRTRYFFLL
On to B3, for which the binding entry in experiment [3] is “binds”.

B4: RNF41/Nrdp1, Q9H4P4 1-317 (protein)
chain: MGYDVTRFQGDVDEDLICPICSGVLEEPVQAPHCEHAFCNACITQWFSQQQTCPVDRSVVTVAHLRPVPRIMRNMLSKLQIACDNAVFGCSAVVRLDNLMSHLSDCEHNPKRPVTCEQGCGLEMPKDELPNHNCIKHLRSVVQQQQTRIAELEKTSAEHKHQLAEQKRDIQLLKAYMRAIRSVNPNLQNLEETIEYNEILEWVNSLQPARVTRWGGMISTPDAVLQAVIKRSLVESGCPASIVNELIENAHERSWPQGLATLETRQMNRRYYENYVAKRIPGKQAVVVMACENQHMGDDMVQEPGLVMIFAHGVEEI
For the molecule B4, the binding entry in experiment [4] was “binds”.

B5: GLA (protein, UniProt P06280 32-429)
chain: LDNGLARTPTMGWLHWERFMCNLDCQEEPDSCISEKLFMEMAELMVSEGWKDAGYEYLCIDDCWMAPQRDSEGRLQADPQRFPHGIRQLANYVHSKGLKLGIYADVGNKTCAGFPGSFGYYDIDAQTFADWGVDLLKFDGCYCDSLENLADGYKHMSLALNRTGRSIVYSCEWPLYMWPFQKPNYTEIRQYCNHWRNFADIDDSWKSIKSILDWTSFNQERIVDVAGPGGWNDPDMLVIGNFGLSWNQQVTQMALWAIMAAPLFMSNDLRHISPQAKALLQDKDVIAINQDPLGKQGYQLRQGDNFEVWERPLSGLAWAVAMINRQEIGGPRSYTIAVASLGKGVACNPACFITQLLPVKRKLGFYEWTSRLRSHINPTGTVLLQLENTMQMSLKDLL
For B5, the binding entry in experiment [5] is on record as “binds”.
